Data on one substance can be found in publication PMC5653651.

Results are given in words; binding and its absence hold for the method and conditions named. Some results given as binding are weak or reduced against the parent protein; the word gives no strength.

In the experiment the target is ScNup82-Flag-TEV-ProtA (Saccharomyces cerevisiae) (UniProt P40368). Description: affinity co-purification of co-expressed proteins; ScNup82 complex from yeast co-expressing the four proteins, tandem: IgG beads, TEV protease, anti-Flag beads, Flag peptide.

ScDyn2 (from UniProt Q02647 1-92): the binding entry is “binds”.
